# PubChem BioAssay AID686938 | Drosophila RNAi Screening Center, 2013
# Test: 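Knock-downs reducing store-operated calcium influx in Drosophila cells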 (primary screen)
# System: Drosophila S2R+ cells
# Knock-down reagent: long dsRNA against Drosophila genes, about 0.25 µg dsRNA per well, roughly 10,000 cells
# Timing: 5 days of knock-down before the calcium assay
# Challenge: thapsigargin (SERCA pump blocker) to empty calcium stores; entry signal taken 4 min after adding it
# Read-out: 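Per-well fluo-4 fluorescence in two replicates, unnormalised, measured in resting cells and 4 min after store depletion by the SERCA blocker thapsigargin; ratio of the two present in few wells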
# Reading the numbers: calcium entry signal: higher = stronger calcium signal after store depletion; resting calcium signal: higher = higher resting calcium signal
# Call rule: 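Hit if the duplicate-averaged plate z-score for entry over resting signal is under −3; wells with weak total dye signal (Fmax z < −2) or more than 5 off-targets removed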
# Meaning of the calls: active = strongly reduced calcium entry; inactive = no strong reduction
# In all, the deposit lists about 23,000 reagents; shown is a random part of those with a known target gene and a result. In the full data, 75 (0.33%) got an active call. 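Raw plate signals without normalisation; calls rest on plate z-scores that were not deposited; ratio present for only 364 wells.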 A number with no mark means an inactive call. Not given: the dose of the treatment.
predicted target,amplicon,"calcium entry signal, replicate 1 (fluorescence units)","calcium entry signal, replicate 2 (fluorescence units)","resting calcium signal, replicate 1 (fluorescence units)","resting calcium signal, replicate 2 (fluorescence units)"
CG34011,DRSC00888,2.58e7,3.57e7,1.42e7,1.59e7
Hs3st-A,DRSC06507,4.30e7,3.62e7,2.31e7,1.93e7
Hs3st-A,DRSC06508,5.59e7,5.98e7,2.62e7,2.70e7
Hs3st-A,DRSC06509,4.69e7,4.78e7,2.10e7,2.34e7
RluA-2,DRSC02939,3.97e7,,2.26e7,
Dnaaf5,DRSC13032,2.51e7,2.25e7,1.23e7,1.16e7
CG11349,DRSC08179,2.10e7,3.60e7,1.14e7,1.69e7
Sf3a1,DRSC15166,1.77e7 (active),1.83e7,1.23e7,1.13e7
Ir7g,DRSC18008,2.96e7,3.52e7,1.53e7,1.56e7
CG14451,DRSC11708,2.10e7,2.97e7,9.75e6,1.47e7
CG10338,DRSC02039,2.38e7,4.13e7,1.19e7,1.68e7
CG8850,DRSC07287,2.90e7,3.46e7,1.49e7,1.45e7
morgue,DRSC00264,4.31e7,,2.49e7,
CG33689,DRSC09424,3.29e7,3.39e7,1.69e7,1.78e7
Spf30,DRSC11976,2.39e7,3.83e7,1.28e7,1.76e7
PH4alphaPV,DRSC22400,3.18e7,2.73e7,1.64e7,1.13e7
Grl43a,DRSC06383,4.70e7,3.35e7,2.05e7,1.66e7
CG12851,DRSC04131,2.55e7,3.63e7,1.45e7,1.58e7
Mtmr6,DRSC04046,3.50e7,4.94e7,1.81e7,2.14e7
kkv,DRSC12315,2.79e7,3.23e7,1.18e7,1.48e7
sol,DRSC20587,4.01e7,3.94e7,1.82e7,1.51e7
CG1598,DRSC06598,5.82e7,4.45e7,2.56e7,1.93e7
CG18418,DRSC08535,5.47e7,4.29e7,3.60e7,1.83e7
Elk,DRSC07608,3.27e7,3.00e7,1.42e7,1.43e7
CG9259,DRSC03174,5.12e7,4.43e7,2.60e7,1.95e7
jp,DRSC02213,5.11e7,,2.34e7,
jp,DRSC02744,3.91e7,7.53e7,1.81e7,3.24e7
tsu,DRSC07265,6.97e7,4.22e7,2.61e7,1.72e7
CG13847,DRSC14697,3.36e7,3.81e7,1.80e7,2.00e7
CG13847,DRSC23172,6.93e7,3.29e7,3.07e7,1.34e7
alpha-Est9,DRSC12621,3.83e7,3.27e7,1.91e7,1.64e7
CG14406,DRSC19592,3.24e7,3.62e7,1.58e7,1.51e7
Smyd5,DRSC15483,3.97e7,4.12e7,4.80e7,1.81e7
CG4806,DRSC04491,3.84e7,2.80e7,2.18e7,1.55e7
CG31251,DRSC16247,2.87e7,3.08e7,3.39e7,1.31e7
rdo,DRSC02452,4.03e7,,2.00e7,
Cpr78Cc,DRSC11846,2.20e7,3.14e7,1.07e7,1.55e7
CG34458,DRSC06925,4.31e7,5.78e7,1.97e7,2.69e7
cib,DRSC18660,2.69e7,5.07e7,1.36e7,2.70e7
Trf5,DRSC00412,3.51e7,3.94e7,1.56e7,1.54e7
